Source: patent publication US20220184120A1
Results are given in words; binding and its absence hold for the method and conditions named. Some binding calls cover weakened binding; strength is not graded here. Each block holds one binder with its values, some of them ahead of it.

By UniProt entry, the sequences of proteins in these tests, tags left out. Residues count along the entry.
UniProt P15941, residues 1110-1255: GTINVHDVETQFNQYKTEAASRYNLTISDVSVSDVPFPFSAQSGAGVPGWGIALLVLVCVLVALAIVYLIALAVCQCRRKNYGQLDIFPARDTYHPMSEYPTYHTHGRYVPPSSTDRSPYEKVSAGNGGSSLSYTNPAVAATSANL

Key:
[1] = target: MUC1 transmembrane cleavage product after cleavage of full-length MUC1 by MMP9 (UniProt P15941); assay: flow cytometry (recap in IHC legend)
[2] = target: MUC1* (cleaved MUC1) as it occurs on MUC1/MUC1* positive cancer cell lines (human) (UniProt P15941); assay: flow cytometry, ZR-75-1 cells, Anti-Penta-His detection (FIG. 4A-4C)
[3] = target: MUC1* (cleaved MUC1) as it occurs on MUC1/MUC1* positive cancer cell lines (human) (UniProt P15941); assay: flow cytometry (FIG. 4A-4C)
[4] = target: MUC1* (cleaved MUC1) as it occurs on MUC1/MUC1* positive cancer cell lines (human) (UniProt P15941); assay: flow cytometry, ZR-75-1 cells (FIG. 4F)
[5] = target: MUC1* (cleaved MUC1) as it occurs on MUC1/MUC1* positive cancer cell lines (human) (UniProt P15941); assay: flow cytometry (FIG. 4F)
[6] = target: MUC1 transmembrane cleavage product after cleavage of full-length MUC1 by MMP9 (UniProt P15941); assay: flow cytometry (FIG. 37 and FIG. 75)
[7] = target: MUC1* (cleaved MUC1) as it occurs on MUC1/MUC1* positive cancer cell lines (human) (UniProt P15941); assay: flow cytometry, T47D, 1500, NCI-H292, NCI-H1975, SKOV-3, HPAF-II, Capan-1, DU145 (FIG. 77); Capan-1 and DU145 recognized less well
[8] = target: MUC1 transmembrane cleavage product after cleavage of full-length MUC1 by MMP9 (UniProt P15941); assay: flow cytometry, HCT-MUC1-18 cells + MMP9 (FIG. 37C)
[9] = target: MUC1 transmembrane cleavage product after cleavage of full-length MUC1 by MMP9 (UniProt P15941); assay: flow cytometry (FIG. 37)
[10] = target: MUC1* (cleaved MUC1) as it occurs on MUC1/MUC1* positive cancer cell lines (human) (UniProt P15941); assay: flow cytometry
[11] = target: MUC1 transmembrane cleavage product after cleavage of full-length MUC1 by MMP9 (UniProt P15941); assay: immunofluorescence / flow cytometry, HCT-MUC1-41TR cells + MMP9 (FIG. 37)
[12] = target: MUC1* (cleaved MUC1) as it occurs on MUC1/MUC1* positive cancer cell lines (human) (UniProt P15941); assay: flow cytometry, MFI (FIG. 76-77); NCI-H1975 more strongly than NCI-H292, HPAF-II better than Capan-1 or DU145

B1: 3C2B1 mouse monoclonal antibody (antibody, V domains shown)
VH: EVMLVESGGGLVKPGGSLKLSCAASGITFSTYTMSWVRQTPEKRLEWVATISTGGDKTYYSDSVKGRFTISRDNAKNNLYLQMSSLRSEDTALYYCARGTTAMYYYAMDYWGQGTSVTVSS
VL: DIVLTQSPASLAVSLGQRATISCRASKSISTSDYNYIHWYQQKPGQPPKLLIYLASNLESGVPARFSGSGSGTDFTLNIHPVEEEDAATYYCQHSRELPLTFGAGTKLELK
- binding [1]: binds

B4: MN-C2 mouse monoclonal anti-MUC1* antibody (antibody, V domains shown)
VH: EVQLEESGGGLVKPGGSLKLSCAASGFTFSGYAMSWVRQTPEKRLEWVATISSGGTYIYYPDSVKGRFTISRDNAKNTLYLQMSSLRSEDTAMYYCARLGGDNYYEYFDVWGAGTTVTVSS
VL: DIVITQSTASLGVSLGQRATISCRASKSVSTSGYSYMHWYQQRPGQPPKLLIYLASNLESGVPARFSGSGSGTDFTLNIHPVEEEDAATYYCQHSRELPFTFGGGTKLEIKR
- binding [7]: binds
- binding [8]: binds
- binding [6]: binds
- binding [9]: binds
- binding [10]: binds
- binding [11]: binds
- binding [12]: binds

More lines, now with the values ahead:

- binding [2]: binds
- binding [1]: binds
- binding [3]: binds
B2: humanized MN-C2 scFv (scFv, not shown: small tags and cut ends)
scFv: EVQLVESGGGLVKPGGSLRLSCAASGFTFSGYAMSWVRQAPGKGLEWVSTISSGGTYIYYPDSVKGRFTISRDNAKNSLYLQMNSLRAEDTAVYYCARLGGDNYYEYFDVWGKGTTVTVSSGGGGSGGGGSGGGGSDIVLTQSPASLAVSPGQRATITCRASKSVSTSGYSYMHWYQQKPGQPPKLLIYLASNLESGVPARFSGSGSGTDFTLTINPVEANDTANYYCQHSRELPFTFGGGTKVEIKRT

- binding [4]: binds
- binding [5]: binds
- binding [6]: binds
- binding [1]: binds
B3: MN-E6 mouse monoclonal anti-MUC1* antibody (antibody, V domains shown)
VH: EVKVVESGGDLVKPGGSLKLSCVVSGFTFSRYGMSWVRQTPGKRLEWVATISGGGTYIYYPDSVKGRFTISRDNAKNTLYLQMSSLKSEDTAMYHCTRDNYGRNYDYGMDYWGQGTSVTVSS
VL: QIVLTQSPAIMSASPGEEVTLTCSATSSVSYIHWFQQRPGTSPKLWIYSTSNLASGVPVRFSGSGYGTSYSLTISRMEAEDAATYYCQQRSSSPFTFGSGTKLEIK
